Measured values: patent US20260069728A1, “MULTI-TARGETING COMPOUND AND USE THEREOF” (Chengdu Shetai Medical Technology Co., Ltd., priority 2023, published 2026)
At least one peptide structure holds a part that was inferred or is arguable (an end, a ring closure or a residue).

Experiment: Determination of hydrophilicity/lipophilicity (n-octanol/water distribution coefficient)
Assay type: physicochemical
Details: HEPES buffer pH=7.4 / n-octanol
Experimental: (§1) 10 μL of Purified ^68Ga-SDYD01 was diluted to 500 μL with HEPES buffer (pH=7.4), then 500 μL of n-octanol was added. The mixture was vortexed for 30 min and then centrifuged. Subsequently, 450 μL each of the aqueous and organic phases were taken and centrifuged again. Then, 100 μL each of the aqueous and organic phases were taken, and the radioactivity was measured using a γ counter to calculate the n-octanol/water distribution coefficient (Log Do/w). The measured Log Do/w value for ^68Ga-SDYD01 was −2.54±0.01, and for ^177Lu-SDYD01 was −2.55±0.05.
as §1, with “purified ^68Ga-SDYD02” for “Purified ^68Ga-SDYD01”, “^68Ga-SDYD02” for “^68Ga-SDYD01”, “−2.47±0.03,” for “−2.54±0.01,”, “^177Lu-SDYD02” for “^177Lu-SDYD01”, “−2.35±0.02.” for “−2.55±0.05.”
as §1, with “purified ^68Ga-SDYD05” for “Purified ^68Ga-SDYD01”, “^68Ga-SDYD05” for “^68Ga-SDYD01”, “−2.37±0.02,” for “−2.54±0.01,”, “^177Lu-SDYD05” for “^177Lu-SDYD01”, “−2.46±0.05.” for “−2.55±0.05.”
as §1, with “purified ^68Ga-SDYD06” for “Purified ^68Ga-SDYD01”, “^68Ga-SDYD06” for “^68Ga-SDYD01”, “−1.84±0.03,” for “−2.54±0.01,”, “^177Lu-SDYD06” for “^177Lu-SDYD01”, “−1.94±0.08.” for “−2.55±0.05.”
as §1, with “purified ^68Ga-SDYD03” for “Purified ^68Ga-SDYD01”, “^68Ga-SDYD03” for “^68Ga-SDYD01”, “−1.72±0.04,” for “−2.54±0.01,”, “^177Lu-SDYD03” for “^177Lu-SDYD01”, “−1.52±0.05.” for “−2.55±0.05.”
as §1, with “purified ^68Ga-SDYD04” for “Purified ^68Ga-SDYD01”, “^68Ga-SDYD04” for “^68Ga-SDYD01”, “−1.63±0.07,” for “−2.54±0.01,”, “^177Lu-SDYD04” for “^177Lu-SDYD01”, “−1.39±0.03.” for “−2.55±0.05.”
as §1, with “purified ^68Ga-SDYD07” for “Purified ^68Ga-SDYD01”, “^68Ga-SDYD07” for “^68Ga-SDYD01”, “−2.94±0.15,” for “−2.54±0.01,”, “^177Lu-SDYD07” for “^177Lu-SDYD01”, “−2.71±0.15.” for “−2.55±0.05.”
10 μL of purified ^68Ga-SDYD08 was diluted to 500 μL with HEPES buffer (pH=7.4), then 500 μL of n-octanol was added. […]

Compound: CCCCCC(=O)N[C@@H]1CSCc2cc(CSCCNC(=O)COCCOCCNC(=O)COCCOCCNC(=O)CSC3CC(=O)N(CCC(=O)N[C@H](CCCCNC(=O)CN4CCN(CC(=O)O)CCN(CC(=O)O)CCN(CC(=O)O)CC4)C(=O)NCc4ccc(C(=O)NCCC[C@@H]5C(=O)N[C@@H](CCCNC(=N)N)C(=O)N[C@@H](Cc6ccc7ccccc7c6)C(=O)NCC(=O)N[C@H](Cc6ccc(O)cc6)C(=O)N5C)cc4)C3=O)cc(c2)CSC[C@@H](C(=O)O)NC(=O)[C@H](Cc2ccccc2)NC(=O)[C@H](CCC(N)=O)NC(=O)C([C@@H](C)O)NC(=O)[C@@H]2CCCN2C(=O)[C@@H]2CCCN2C1=O (single isomer, unassigned) [^177Lu-SDYD06, metal not drawn]
- n-octanol/water distribution coefficient (Log Do/w): −1.94±0.08
